In publication PMC3514159:
No constants are given. Whether binding was seen depends on the method and setting. Binding seen in cells or lysates may run through a third protein. Some results given as binding are weak or reduced against the parent protein; the word gives no strength.

Chains of the proteins cited; added tags and fusions are not shown.
UniProt Q9UKS7: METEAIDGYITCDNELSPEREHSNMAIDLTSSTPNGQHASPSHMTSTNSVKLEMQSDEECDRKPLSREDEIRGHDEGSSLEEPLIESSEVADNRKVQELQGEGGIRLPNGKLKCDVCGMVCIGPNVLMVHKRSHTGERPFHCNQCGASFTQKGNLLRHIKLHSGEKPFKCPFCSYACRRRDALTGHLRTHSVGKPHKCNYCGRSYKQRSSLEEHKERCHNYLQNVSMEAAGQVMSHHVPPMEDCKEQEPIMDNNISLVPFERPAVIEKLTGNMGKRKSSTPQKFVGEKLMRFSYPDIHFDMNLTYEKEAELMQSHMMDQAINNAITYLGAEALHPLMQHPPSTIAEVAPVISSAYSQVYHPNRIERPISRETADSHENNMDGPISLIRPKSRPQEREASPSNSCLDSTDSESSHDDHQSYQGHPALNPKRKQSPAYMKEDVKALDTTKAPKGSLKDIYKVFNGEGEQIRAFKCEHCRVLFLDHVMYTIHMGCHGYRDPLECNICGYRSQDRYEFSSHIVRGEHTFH
UniProt Q99697: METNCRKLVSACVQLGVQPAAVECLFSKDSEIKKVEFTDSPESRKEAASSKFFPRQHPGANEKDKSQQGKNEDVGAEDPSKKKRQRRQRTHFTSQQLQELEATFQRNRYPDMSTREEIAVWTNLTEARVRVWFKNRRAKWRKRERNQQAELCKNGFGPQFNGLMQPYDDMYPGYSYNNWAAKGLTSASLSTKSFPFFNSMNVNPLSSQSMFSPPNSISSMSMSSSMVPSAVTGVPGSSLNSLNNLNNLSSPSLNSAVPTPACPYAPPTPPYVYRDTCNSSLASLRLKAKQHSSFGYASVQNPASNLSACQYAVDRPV
UniProt P31249: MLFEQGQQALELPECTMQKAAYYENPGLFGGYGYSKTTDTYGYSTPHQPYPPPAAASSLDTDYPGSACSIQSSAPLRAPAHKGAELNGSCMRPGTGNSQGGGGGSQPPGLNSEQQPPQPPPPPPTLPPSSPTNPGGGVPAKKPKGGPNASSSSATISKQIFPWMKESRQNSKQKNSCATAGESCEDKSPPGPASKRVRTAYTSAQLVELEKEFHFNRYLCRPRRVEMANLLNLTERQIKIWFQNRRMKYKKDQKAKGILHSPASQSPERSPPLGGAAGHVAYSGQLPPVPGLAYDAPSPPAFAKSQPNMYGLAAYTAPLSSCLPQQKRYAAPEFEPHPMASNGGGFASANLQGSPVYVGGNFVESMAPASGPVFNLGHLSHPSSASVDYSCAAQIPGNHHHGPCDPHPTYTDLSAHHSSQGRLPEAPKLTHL
UniProt Q9BYR7: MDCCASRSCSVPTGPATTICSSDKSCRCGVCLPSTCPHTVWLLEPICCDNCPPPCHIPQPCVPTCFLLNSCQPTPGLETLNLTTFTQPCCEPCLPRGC
UniProt P09022: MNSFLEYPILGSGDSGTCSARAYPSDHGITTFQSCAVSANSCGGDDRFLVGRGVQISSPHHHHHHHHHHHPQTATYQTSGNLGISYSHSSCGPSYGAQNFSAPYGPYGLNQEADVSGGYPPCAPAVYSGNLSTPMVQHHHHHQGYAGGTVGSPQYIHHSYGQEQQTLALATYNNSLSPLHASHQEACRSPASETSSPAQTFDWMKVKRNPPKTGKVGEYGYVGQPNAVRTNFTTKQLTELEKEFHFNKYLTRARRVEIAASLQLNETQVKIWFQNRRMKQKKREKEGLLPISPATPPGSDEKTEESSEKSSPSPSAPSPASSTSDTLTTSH

Columns and labels:
Test in all cases: pull-down; GST-hORF and FLAG-Hoxa1 co-expressed in COS7 or HEK293T; cleared lysate (Tris-HCl pH7.5 20mM, NaCl 120mM, EDTA 0.5mM, NP40 0.5%, glycerol 10%) overnight on glutathione-agarose beads, 3 washes; anti-FLAG western blot
[1] = target: IKAROS family zinc finger 2 (human) (UniProt Q9UKS7)
[2] = target: T1, regulator of G-protein signaling 20 (human) (UniProt O76081)
T1 sequence: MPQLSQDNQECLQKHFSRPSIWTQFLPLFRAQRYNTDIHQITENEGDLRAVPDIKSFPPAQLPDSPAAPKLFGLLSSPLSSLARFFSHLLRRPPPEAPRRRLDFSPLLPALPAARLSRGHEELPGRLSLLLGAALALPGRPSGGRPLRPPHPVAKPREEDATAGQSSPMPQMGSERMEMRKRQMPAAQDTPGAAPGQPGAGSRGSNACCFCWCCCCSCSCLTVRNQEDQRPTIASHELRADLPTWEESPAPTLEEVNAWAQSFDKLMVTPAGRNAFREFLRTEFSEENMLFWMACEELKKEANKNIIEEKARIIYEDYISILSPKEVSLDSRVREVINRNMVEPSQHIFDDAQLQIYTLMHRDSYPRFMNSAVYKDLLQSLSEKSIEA

[3] = target: T2, keratin associated protein 5-9 (human) (UniProt P26371)
T2 sequence: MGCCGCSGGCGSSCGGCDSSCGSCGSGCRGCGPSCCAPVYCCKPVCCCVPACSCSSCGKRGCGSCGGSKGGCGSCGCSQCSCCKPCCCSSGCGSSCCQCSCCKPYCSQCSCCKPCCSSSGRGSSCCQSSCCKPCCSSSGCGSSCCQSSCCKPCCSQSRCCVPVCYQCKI

[4] = target: paired-like homeodomain 2 (human) (UniProt Q99697)
[5] = target: T3, family with sequence similarity 108, member A1 (human) (UniProt Q96GS6)
T3 sequence: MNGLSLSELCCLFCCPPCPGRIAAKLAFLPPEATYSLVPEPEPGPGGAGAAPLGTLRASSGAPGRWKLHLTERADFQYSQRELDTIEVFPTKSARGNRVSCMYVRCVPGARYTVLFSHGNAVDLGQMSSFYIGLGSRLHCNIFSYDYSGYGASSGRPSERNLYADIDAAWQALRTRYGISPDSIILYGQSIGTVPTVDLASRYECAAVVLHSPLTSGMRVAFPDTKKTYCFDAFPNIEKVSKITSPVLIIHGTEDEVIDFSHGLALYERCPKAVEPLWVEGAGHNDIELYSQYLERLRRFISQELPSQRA

homeobox D3 (human) = homeobox D3 (human) (UniProt P31249)
PBX1A = target: T4, PBX1A (UniProt P40424)
T4 sequence: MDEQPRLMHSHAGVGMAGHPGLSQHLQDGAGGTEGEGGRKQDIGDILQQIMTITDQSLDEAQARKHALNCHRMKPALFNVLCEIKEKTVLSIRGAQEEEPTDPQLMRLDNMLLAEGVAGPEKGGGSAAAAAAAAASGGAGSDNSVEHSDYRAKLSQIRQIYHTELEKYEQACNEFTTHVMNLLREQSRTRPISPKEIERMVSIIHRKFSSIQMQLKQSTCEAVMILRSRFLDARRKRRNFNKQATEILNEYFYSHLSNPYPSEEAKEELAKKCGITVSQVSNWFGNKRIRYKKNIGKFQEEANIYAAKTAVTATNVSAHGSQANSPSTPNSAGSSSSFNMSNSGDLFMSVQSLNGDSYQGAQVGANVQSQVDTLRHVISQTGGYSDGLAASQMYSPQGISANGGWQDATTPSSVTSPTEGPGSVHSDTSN

[6] = target: keratin associated protein 3-2 (human) (UniProt Q9BYR7)
[7] = target: T5, sprouty homolog 1 (human) (UniProt O43609)
T5 sequence: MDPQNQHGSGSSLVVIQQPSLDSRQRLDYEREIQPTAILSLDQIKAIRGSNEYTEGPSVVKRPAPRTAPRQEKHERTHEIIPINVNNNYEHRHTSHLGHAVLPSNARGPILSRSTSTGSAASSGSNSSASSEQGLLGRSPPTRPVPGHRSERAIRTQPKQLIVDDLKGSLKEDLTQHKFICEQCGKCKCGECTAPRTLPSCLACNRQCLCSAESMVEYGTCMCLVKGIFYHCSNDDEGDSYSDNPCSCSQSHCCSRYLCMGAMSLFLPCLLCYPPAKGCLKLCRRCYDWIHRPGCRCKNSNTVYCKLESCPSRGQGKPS

Measured: binding

FLAG-Hoxa1 (from UniProt P09022 1-331)
binds: all assays above
